The whole screen tested about 330,000 compounds, of which about 7,700 (2.3%) were called active. The inconclusive results got no clear call from the source; some entries with a clear call stand among them for comparison. The call rests on the fitted dose curve; in most records, active means well fitted inhibition curve with a large enough effect; inconclusive means small, poorly fitted or top-dose-only effect, or effect the other way; inactive means flat fitted curve, though single readings scatter. A potency beside an inconclusive call is a rough fit, not a confirmed value.
Test: qHTS screen for small molecules that inhibit ELG1-dependent DNA repair in human embryonic kidney (HEK293T) cells expressing luciferase-tagged ELG1; further: nearly all actives have a fitted effect of over 55% in size
Conditions: HEK293T ELG1-luciferase reporter, luminescence, 16 h, DNA damage induced by 5-fluorouridine; activity change, negative = inhibition: at 46.1 µM (top of the series)
Summary of the method: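 Quantitative HTS, concentration-response format. 2,000 cells/well co-treated with 5-fluorouridine and compound, 16 hr in 5% CO2 at 37 °C; ONE-Glo luminescence read after 30 min.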
On the % scale 0 is the no-effect control and ±100 the full control effect; potency means the concentration at half of the fitted maximal effect.

Row | SMILES | Potency | activity change, negative = inhibition
1 | CN1CCN(C(=O)c2ccc3c(c2)N(Cc2ccc(F)cc2)C(=O)c2ccccc2S3=O)CC1 (stereo not given) | inconclusive: 25.9 µM [activator, single point] | –
2 | Cc1nc([N+](=O)[O-])c(Br)n1CC(=O)c1ccccc1 | – | inactive: -6.07%
3 | O=C(Nc1cccc(F)c1)c1ccccc1 | inconclusive: 23.1 µM [activator, partial curve] | –
4 | CC(Sc1ccccc1F)C(=O)Nc1ccc2c(c1)OCCO2 (stereo not given) | inconclusive: 5.17 µM [activator, partial curve] | –
5 | Cc1cc(C(=O)Nc2cccc(-c3ccc(N4CCOCC4)nn3)c2)ccc1[N+](=O)[O-] | inconclusive: 29.1 µM [inhibitor, single point] | –
6 | Cc1cnc(=O)[nH]c1SCc1ccc([N+](=O)[O-])cc1 | – | inactive: 0.679%
7 | Cc1cc(O)c(Oc2cc(C)cc(O)c2O)c(O)c1 | – | inactive: 0%
8 | O=C(/C=C/c1ccc(Br)o1)Nc1nnc(C2CC2)s1 | inconclusive: 10.3 µM [activator, partial curve, poor fit] | –
9 | O=c1cc(NCc2ccco2)[nH]c(=O)n1-c1ccc(Br)cc1 | – | inactive: -3.44%
10 | COc1ccc(N2CC(C(=O)Nc3cccc(S(=O)(=O)N4CCCC4)c3)CC2=O)c(OC)c1 (stereo not given) | inconclusive: 0.58 µM [inhibitor, single point] | –
11 | CN(C(=O)COC(=O)/C=C/c1cccc([N+](=O)[O-])c1)C1CCS(=O)(=O)C1 (stereo not given) | active: 13 µM | –
12 | C/C(N)=C(/C#N)C(=O)CSc1nnnn1-c1ccc(C)cc1C | inconclusive: 11.6 µM [inhibitor, partial curve] | –
13 | CC1CCc2nc3ccccc3c(C(=O)OCC(=O)N3CCc4ccccc43)c2C1 (stereo not given) | active: 18.4 µM | –
14 | Cc1cc(C(F)F)n2ncc(C(=O)NC3CCCCCC3)c2n1 | inconclusive: 29.1 µM [inhibitor, single point] | –
15 | Cc1c(/C(O)=C2\C(=O)C(=O)N(CCN(C)C)C2c2ccco2)cnn1-c1ccccc1 (stereo not given) | inconclusive: 20.6 µM [activator, partial curve] | –
16 | CNc1nc(Nc2ccc(C)c(Cl)c2)nc(N)c1[N+](=O)[O-] | inconclusive: 9.2 µM [activator, partial curve] | –
17 | COCCN(CCOC)S(=O)(=O)c1ccc(OC)cc1 | – | inactive: 4.28%
18 | Nc1nc2nccc(-c3ccc(Cl)cc3)n2n1 | inconclusive: 35.5 µM [inhibitor, single point] | –
19 | CC(=O)NC(=S)Nc1ccc(S(=O)(=O)N2CCOCC2)cc1 | – | inactive: 0.133%
20 | O=C(COC(=O)/C=C/c1ccc(C(F)(F)F)cc1)NC1CCCC1 | – | inactive: -4.52%
21 | c1ccc(C2Nc3ccccc3-c3nc4ccccc4n32)cc1 (stereo not given) | inconclusive: 18.4 µM [activator, single point] | –
22 | CC[n+]1c(/C=C(\C)OC)sc2ccccc21 | inconclusive: 16.4 µM [activator, partial curve] | –
23 | Nc1nnc(SCC(=O)NNC(=O)c2ccccc2F)s1 | – | inactive: 13.4%
24 | O=C(/C=C/c1ccccc1Cl)Nc1cccc(O)c1 | inconclusive: 6.51 µM [activator, single point] | –

Looked up above.
Entry of `Cc1cc(C(F)F)n2ncc(C(=O)NC3CCCCCC3)c2n1` under Potency: inconclusive: 29.1 µM [inhibitor, single point]
Entry of `Cc1cc(C(=O)Nc2cccc(-c3ccc(N4CCOCC4)nn3)c2)ccc1[N+](=O)[O-]` under Potency: inconclusive: 29.1 µM [inhibitor, single point]
Entry of `CC[n+]1c(/C=C(\C)OC)sc2ccccc21` under Potency: inconclusive: 16.4 µM [activator, partial curve]
Entry of `Nc1nc2nccc(-c3ccc(Cl)cc3)n2n1` under Potency: inconclusive: 35.5 µM [inhibitor, single point]
Entry of `O=C(/C=C/c1ccccc1Cl)Nc1cccc(O)c1` under Potency: inconclusive: 6.51 µM [activator, single point]
Entry of `CNc1nc(Nc2ccc(C)c(Cl)c2)nc(N)c1[N+](=O)[O-]` under Potency: inconclusive: 9.2 µM [activator, partial curve]

Next structures

Row | SMILES | Potency | activity change, negative = inhibition
25 | COc1ccccc1N1CCN(C(=O)CN2C(=O)C3CCCCC3C2=O)CC1 (stereo not given) | inconclusive: 20.6 µM [activator, partial curve] | –
26 | CC(=O)Nc1ccc(OCC(=O)N2CCc3ccccc3C2)cc1 | inconclusive: 4.61 µM [inhibitor, single point] | –
27 | CC1=C(/C=C/C(C)=C/C=C/C(C)=C/C(=O)Nc2ccc(O)cc2)C(C)(C)CCC1 | inconclusive: 25.9 µM [inhibitor, single point] | –
28 | Cc1nn(C)cc1S(=O)(=O)N1CCCCC1C (stereo not given) | – | inactive: 11.9%
29 | Cc1nccc(-c2ccc(-n3c(C)ccc3C)cc2)n1 | inconclusive: 16.4 µM [activator, single point] | –
30 | CCC(Cc1ccccc1)NS(=O)(=O)c1csc(C(N)=O)c1 (stereo not given) | inconclusive: 13 µM [activator, single point] | –
31 | O=C(Nc1cccc(-n2cccn2)c1)C1CCCN(Cc2ccc(C#CCCO)cc2)C1 (stereo not given) | inconclusive: 23.1 µM [inhibitor, single point] | –
32 | Cc1cc(NC(=O)c2cccs2)n(-c2nc3ccccc3[nH]2)n1 | – | inactive: -11.8%
33 | COc1ccc(C(=O)Nc2ccc3[nH]ncc3c2)cc1 | inconclusive: 3.16 µM [activator, partial curve, poor fit] | –
34 | O=C(CCc1ccccc1)NNC(=O)c1ccc(Cl)cc1 | – | inactive: 8.19%
35 | COc1cc(C(=O)Nc2ccc(C)cn2)ccc1OCC(=O)N1CCOCC1 | inconclusive: 20.6 µM [activator, partial curve, poor fit] | –
36 | CCc1c(C)nc2ncnn2c1N1CCCC(C(=O)NCc2ccc3c(c2)OCO3)C1 (stereo not given) | inconclusive: 22.4 µM [inhibitor, single point] | –
37 | Cc1occc1-c1nnc(SCC(=O)Nc2ccccc2)n1C(C)c1ccccc1 (stereo not given) | inconclusive: 25.9 µM [inhibitor, partial curve, poor fit] | –
38 | Cc1ccn2cc(-c3cccc(NC(=O)CCC(=O)O)c3)nc2c1 | inconclusive: 5.8 µM [activator, partial curve, poor fit] | –
39 | CCNc1nc(NC(C)(C)C)nc(Oc2ccc(=O)n(-c3ccccc3)n2)n1 | inconclusive: 29.1 µM [inhibitor, single point] | –
40 | CC1=CN(S(=O)(=O)c2ccc(C)cc2)C[C@@H]2[C@H]3CC[C@H](C3)[C@H]12 | – | inactive: -5.28%
41 | CCCCC(=O)OCC(=O)c1ccc(OCC)cc1 | inconclusive: 16.4 µM [activator, partial curve] | –
42 | Cc1cc(NC(=O)CSCC(=O)OCC(=O)Nc2ccc(OC(F)F)cc2)no1 | inconclusive: 5.8 µM [activator, partial curve, poor fit] | –
43 | CSc1ccccc1C(=O)OCC(=O)NC1CCS(=O)(=O)C1 (stereo not given) | – | inactive: 1.32%
44 | N/C(=N\OC(=O)COc1ccc(Br)cc1)c1ccncc1 | inconclusive: 18.4 µM [activator, single point] | –
45 | CCOC(=O)c1c(C)n(C)c2ccc(OC)c(NC(=O)CN3CCSCC3)c12 | inconclusive: 13 µM [inhibitor, single point] | –
46 | CCc1cc2c(Nc3ccccc3O)nc(C)nc2s1 | inconclusive: 29.1 µM [inhibitor, single point] | –
47 | O=S(=O)(Cc1ccccc1)Nc1ccc(S(=O)(=O)NCC2CCCO2)cc1 (stereo not given) | inconclusive: 18.4 µM [activator, partial curve, poor fit] | –
48 | Cc1ccc(O)c(NC(=S)NC(=O)CC(C)C)c1 | inconclusive: 10.3 µM [activator, partial curve] | –

Row | SMILES | Potency | activity change, negative = inhibition
49 | COc1ccc(-n2c(C)c(C(C)=O)c3cc(OCC(N)=O)ccc32)cc1 | inconclusive: 18.3 µM [inhibitor, single point] | –
50 | COc1ccc(C2=NOC(C)(c3nnc(-c4ccc(F)cc4)o3)C2)cc1 (stereo not given) | inconclusive: 16.4 µM [activator, partial curve, poor fit] | –
51 | c1ccc2cc(-c3cc4ccccn4c3)ccc2c1 | inconclusive: 18.4 µM [activator, partial curve] | –
52 | COc1cc(OC)cc(-c2c(-c3ccc(F)cc3)c3cc(-c4ccc(OC)nc4)ccc3n2C)c1 | – | inactive: -0.814%
53 | COc1ccc(CCNc2nc3ccc(C)cc3n3cnnc23)cc1OC | – | inactive: -17.1%
54 | O=C(NCCCN1CCOCC1)c1cc(-c2ccc(Br)cc2)on1 | inconclusive: 29.1 µM [inhibitor, partial curve, poor fit] | –
55 | O=C(CCNC(=O)c1ccc([N+](=O)[O-])cc1)NNC(=O)c1ccccc1F | – | inactive: 6.78%
56 | COc1ccc(N(CC(=O)NC2CCCCCC2)S(=O)(=O)c2ccc(C)cc2)cc1OC | – | inactive: 1.62%
57 | COc1c(F)c(F)c(C(=O)Nc2ccccc2N2CCN(C(=O)C(C)C)CC2)c(F)c1F | inconclusive: 8.2 µM [inhibitor, partial curve, poor fit] | –
58 | COc1ccc(/C=C(/NC(=O)c2ccco2)C(=O)Nc2ccc(C(=O)O)cc2)cc1 | – | inactive: -0.589%
59 | Cc1cccc(NC(=O)NCc2ccc3c(c2)OCO3)c1 | inconclusive: 13 µM [activator, partial curve] | –
60 | COc1cccc(COC(=O)C2CC(=O)N(Cc3ccc(C)cc3)C2)c1OC (stereo not given) | – | inactive: -1.21%
61 | Cc1ccc2occ(/C=N/NC(=O)c3ccncc3)c(=O)c2c1 | inconclusive: 20.6 µM [inhibitor, partial curve] | –
62 | COc1ccc(C2=NS(=O)(=O)N(C)C(C(=O)NCc3ccc(F)cc3)=C2)cc1OC | inconclusive: 20.6 µM [inhibitor, single point] | –
63 | COCCN1Cc2cccc(C(=O)Nc3ccc4c(c3)OCCO4)c2C1=O | inconclusive: 14.6 µM [activator, partial curve] | –
64 | Cc1ccc(C)c(NC(=S)NNC(=O)c2csc(C)c2C)c1 | – | inactive: 0.579%
65 | CCCC(NCC(O)COc1ccc(-c2ccccc2)cc1)c1ccccc1 (stereo not given) | inconclusive: 23.1 µM [inhibitor, single point] | –
66 | Cc1ccccc1S(=O)(=O)Cc1ccc(C(=O)NCc2cccnc2)o1 | inconclusive: 0.731 µM [activator, single point] | –
67 | CC(=O)Nc1cccc(NC(=O)CSc2nnc(NC(=O)C3CC3)s2)c1 | – | inactive: 17.8%
68 | COc1ccc(C(=O)CC(=O)C(=O)Nc2ccc(Cl)cc2)cc1 | inconclusive: 16.4 µM [inhibitor, single point] | –
69 | CCCN(CC(=O)Nc1ccccc1OC)C(=O)c1cc(-c2cccs2)nn1-c1ccccc1 | inconclusive: 23.1 µM [inhibitor, single point] | –
70 | COC(=O)c1c(C)[nH]c(C)c1-c1ccc(C)cc1 | inconclusive: 0.0164 µM [inhibitor, partial curve, poor fit] | –

From PubChem BioAssay AID504467 (National Center for Advancing Translational Sciences (NCATS), 2011)
